From the supplement of paper PMC10849652
This is one part of the list.

Protein sequences, listed by entry. Tags and fused reporters are not part of them. Lines headed by an entry give the natural chain unless they say otherwise; changes in a name come on top.
UniProt Q8TDW0: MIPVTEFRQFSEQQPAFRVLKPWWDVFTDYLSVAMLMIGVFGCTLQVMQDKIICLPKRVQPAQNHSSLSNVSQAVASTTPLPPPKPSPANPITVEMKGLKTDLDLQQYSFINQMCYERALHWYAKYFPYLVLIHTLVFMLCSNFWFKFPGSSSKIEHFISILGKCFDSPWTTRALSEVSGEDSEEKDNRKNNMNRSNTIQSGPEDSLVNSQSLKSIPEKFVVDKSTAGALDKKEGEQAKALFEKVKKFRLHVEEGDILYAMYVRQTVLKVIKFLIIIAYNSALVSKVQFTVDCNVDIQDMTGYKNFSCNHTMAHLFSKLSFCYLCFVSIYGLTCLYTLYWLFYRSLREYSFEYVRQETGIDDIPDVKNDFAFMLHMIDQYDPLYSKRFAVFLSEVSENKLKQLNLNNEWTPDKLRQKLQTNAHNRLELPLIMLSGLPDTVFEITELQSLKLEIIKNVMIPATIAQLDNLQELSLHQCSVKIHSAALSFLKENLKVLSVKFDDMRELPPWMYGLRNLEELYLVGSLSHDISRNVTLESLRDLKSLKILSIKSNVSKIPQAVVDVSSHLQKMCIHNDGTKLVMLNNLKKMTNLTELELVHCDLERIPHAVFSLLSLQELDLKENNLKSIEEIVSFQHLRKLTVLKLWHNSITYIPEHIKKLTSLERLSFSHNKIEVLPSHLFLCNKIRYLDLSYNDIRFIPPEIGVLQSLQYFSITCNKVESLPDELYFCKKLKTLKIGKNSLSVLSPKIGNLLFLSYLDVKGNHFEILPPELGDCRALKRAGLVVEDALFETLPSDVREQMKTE
UniProt Q9BQ69: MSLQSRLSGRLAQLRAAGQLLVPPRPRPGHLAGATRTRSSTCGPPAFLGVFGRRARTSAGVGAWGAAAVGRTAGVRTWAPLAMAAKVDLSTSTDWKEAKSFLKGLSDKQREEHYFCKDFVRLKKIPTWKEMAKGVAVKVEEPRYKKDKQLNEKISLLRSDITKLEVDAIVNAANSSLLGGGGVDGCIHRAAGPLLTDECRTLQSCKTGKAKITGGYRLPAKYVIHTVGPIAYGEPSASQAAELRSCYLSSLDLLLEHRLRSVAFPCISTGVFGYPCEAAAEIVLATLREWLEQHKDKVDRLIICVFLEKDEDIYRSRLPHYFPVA
UniProt Q6ZN28: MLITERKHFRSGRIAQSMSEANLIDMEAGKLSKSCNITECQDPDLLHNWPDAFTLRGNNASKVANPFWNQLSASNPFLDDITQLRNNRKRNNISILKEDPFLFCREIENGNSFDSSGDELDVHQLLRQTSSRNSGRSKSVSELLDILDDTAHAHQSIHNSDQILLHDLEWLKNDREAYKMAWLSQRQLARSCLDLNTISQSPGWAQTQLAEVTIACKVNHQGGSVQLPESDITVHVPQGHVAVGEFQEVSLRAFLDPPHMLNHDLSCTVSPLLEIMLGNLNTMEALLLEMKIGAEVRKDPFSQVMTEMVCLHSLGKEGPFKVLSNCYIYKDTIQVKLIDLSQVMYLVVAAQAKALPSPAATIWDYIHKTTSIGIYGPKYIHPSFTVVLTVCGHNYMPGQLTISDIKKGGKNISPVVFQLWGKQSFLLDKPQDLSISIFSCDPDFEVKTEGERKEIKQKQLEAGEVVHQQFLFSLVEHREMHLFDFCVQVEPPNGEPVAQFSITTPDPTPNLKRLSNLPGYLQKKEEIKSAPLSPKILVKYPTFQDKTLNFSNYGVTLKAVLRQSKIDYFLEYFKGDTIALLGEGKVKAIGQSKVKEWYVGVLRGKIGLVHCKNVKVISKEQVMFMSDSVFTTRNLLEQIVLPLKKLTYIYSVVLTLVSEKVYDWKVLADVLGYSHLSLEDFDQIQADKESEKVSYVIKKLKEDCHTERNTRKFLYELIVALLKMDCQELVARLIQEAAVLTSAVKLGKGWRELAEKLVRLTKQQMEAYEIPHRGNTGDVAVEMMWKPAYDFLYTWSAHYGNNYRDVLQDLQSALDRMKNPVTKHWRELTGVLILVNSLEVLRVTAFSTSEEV
UniProt Q7L5Y9: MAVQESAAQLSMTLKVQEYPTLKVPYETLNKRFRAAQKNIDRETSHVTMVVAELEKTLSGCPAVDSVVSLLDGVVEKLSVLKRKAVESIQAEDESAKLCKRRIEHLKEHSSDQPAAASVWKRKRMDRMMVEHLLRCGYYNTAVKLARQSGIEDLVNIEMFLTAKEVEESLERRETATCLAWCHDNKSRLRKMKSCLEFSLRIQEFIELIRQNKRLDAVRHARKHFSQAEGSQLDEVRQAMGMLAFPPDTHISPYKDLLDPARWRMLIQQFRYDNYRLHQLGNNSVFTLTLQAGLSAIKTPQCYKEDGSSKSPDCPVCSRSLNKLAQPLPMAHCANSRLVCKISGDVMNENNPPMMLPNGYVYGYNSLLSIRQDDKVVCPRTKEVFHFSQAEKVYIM
UniProt P12980: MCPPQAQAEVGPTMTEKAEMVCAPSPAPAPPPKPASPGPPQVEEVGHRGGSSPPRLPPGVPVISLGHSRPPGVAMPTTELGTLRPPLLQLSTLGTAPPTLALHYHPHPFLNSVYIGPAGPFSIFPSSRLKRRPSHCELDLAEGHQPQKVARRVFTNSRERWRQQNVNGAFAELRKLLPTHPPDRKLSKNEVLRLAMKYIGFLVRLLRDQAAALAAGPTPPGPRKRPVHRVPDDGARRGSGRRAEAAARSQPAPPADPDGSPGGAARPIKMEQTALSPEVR
UniProt Q9NU23: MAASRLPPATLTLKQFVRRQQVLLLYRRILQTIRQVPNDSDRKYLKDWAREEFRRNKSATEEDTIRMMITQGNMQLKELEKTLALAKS
UniProt O00462: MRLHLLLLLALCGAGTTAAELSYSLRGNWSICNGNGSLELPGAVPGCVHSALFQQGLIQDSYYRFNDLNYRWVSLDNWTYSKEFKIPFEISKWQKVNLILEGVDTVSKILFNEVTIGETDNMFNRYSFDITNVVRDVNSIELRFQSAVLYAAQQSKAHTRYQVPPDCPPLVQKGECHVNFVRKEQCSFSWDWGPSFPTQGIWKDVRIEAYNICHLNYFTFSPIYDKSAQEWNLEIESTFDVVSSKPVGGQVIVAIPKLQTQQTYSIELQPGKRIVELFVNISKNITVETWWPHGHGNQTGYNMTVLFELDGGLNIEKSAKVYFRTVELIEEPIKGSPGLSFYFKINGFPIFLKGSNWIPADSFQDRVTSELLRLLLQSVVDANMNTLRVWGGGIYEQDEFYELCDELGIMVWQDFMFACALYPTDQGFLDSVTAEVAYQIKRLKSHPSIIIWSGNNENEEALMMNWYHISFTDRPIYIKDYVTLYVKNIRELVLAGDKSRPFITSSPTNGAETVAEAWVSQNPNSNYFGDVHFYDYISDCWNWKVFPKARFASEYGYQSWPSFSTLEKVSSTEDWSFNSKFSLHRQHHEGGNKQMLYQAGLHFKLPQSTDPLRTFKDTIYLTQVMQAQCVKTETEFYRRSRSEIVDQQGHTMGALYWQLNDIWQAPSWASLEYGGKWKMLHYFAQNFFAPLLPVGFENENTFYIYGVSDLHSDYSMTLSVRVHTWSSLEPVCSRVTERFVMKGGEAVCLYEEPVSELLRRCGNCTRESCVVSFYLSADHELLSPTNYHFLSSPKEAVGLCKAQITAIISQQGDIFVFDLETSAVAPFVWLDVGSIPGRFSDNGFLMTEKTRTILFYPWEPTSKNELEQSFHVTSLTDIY
UniProt Q8IVH8: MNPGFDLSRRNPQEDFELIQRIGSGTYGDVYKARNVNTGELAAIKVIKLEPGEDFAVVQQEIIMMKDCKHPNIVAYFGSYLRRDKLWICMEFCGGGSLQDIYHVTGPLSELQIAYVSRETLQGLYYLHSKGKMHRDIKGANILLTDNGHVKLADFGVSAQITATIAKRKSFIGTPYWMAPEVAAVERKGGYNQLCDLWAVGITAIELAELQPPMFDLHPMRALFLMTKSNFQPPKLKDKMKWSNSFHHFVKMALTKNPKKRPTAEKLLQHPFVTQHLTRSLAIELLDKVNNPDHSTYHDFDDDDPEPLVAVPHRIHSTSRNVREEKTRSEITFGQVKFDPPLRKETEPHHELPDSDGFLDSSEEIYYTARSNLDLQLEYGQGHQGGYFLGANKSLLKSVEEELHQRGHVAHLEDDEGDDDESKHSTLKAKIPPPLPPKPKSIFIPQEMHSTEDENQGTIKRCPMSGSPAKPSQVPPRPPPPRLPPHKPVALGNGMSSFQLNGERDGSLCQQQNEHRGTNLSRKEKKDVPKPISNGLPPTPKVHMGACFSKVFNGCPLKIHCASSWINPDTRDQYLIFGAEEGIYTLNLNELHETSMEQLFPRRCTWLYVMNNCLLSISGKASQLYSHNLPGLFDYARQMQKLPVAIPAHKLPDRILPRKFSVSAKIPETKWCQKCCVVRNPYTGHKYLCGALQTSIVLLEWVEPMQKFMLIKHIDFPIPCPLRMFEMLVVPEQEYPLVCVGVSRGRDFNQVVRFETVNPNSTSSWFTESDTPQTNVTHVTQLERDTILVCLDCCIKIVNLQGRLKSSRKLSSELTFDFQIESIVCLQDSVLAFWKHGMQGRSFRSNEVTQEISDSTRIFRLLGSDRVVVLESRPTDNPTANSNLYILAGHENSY
UniProt Q5SRI9: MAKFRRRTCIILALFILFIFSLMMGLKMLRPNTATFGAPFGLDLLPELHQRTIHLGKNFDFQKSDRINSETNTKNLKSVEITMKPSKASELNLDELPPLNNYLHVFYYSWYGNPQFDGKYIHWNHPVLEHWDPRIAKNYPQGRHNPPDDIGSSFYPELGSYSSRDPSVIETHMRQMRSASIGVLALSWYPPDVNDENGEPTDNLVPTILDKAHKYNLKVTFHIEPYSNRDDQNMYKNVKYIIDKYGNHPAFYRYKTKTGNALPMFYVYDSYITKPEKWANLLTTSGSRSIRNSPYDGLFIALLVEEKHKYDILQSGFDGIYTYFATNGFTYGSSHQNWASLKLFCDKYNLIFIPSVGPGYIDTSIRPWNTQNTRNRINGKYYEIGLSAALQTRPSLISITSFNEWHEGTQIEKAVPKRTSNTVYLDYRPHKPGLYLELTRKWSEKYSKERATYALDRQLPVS
UniProt Q8WVR3: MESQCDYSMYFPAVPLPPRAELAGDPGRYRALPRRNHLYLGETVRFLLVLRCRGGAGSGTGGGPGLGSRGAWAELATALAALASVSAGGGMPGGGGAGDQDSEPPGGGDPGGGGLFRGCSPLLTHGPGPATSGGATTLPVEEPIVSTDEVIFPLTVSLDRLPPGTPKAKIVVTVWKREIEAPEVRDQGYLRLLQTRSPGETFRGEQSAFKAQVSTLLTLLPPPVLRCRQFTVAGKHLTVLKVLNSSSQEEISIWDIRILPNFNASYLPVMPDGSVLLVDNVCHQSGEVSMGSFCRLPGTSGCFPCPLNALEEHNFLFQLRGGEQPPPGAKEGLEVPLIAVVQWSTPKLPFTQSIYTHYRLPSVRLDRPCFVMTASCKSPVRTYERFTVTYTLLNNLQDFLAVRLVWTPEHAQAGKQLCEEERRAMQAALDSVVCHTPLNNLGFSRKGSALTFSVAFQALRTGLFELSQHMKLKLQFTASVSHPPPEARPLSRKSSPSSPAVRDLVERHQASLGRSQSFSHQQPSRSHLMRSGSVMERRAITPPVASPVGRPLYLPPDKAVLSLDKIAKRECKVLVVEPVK
UniProt Q9NTJ4: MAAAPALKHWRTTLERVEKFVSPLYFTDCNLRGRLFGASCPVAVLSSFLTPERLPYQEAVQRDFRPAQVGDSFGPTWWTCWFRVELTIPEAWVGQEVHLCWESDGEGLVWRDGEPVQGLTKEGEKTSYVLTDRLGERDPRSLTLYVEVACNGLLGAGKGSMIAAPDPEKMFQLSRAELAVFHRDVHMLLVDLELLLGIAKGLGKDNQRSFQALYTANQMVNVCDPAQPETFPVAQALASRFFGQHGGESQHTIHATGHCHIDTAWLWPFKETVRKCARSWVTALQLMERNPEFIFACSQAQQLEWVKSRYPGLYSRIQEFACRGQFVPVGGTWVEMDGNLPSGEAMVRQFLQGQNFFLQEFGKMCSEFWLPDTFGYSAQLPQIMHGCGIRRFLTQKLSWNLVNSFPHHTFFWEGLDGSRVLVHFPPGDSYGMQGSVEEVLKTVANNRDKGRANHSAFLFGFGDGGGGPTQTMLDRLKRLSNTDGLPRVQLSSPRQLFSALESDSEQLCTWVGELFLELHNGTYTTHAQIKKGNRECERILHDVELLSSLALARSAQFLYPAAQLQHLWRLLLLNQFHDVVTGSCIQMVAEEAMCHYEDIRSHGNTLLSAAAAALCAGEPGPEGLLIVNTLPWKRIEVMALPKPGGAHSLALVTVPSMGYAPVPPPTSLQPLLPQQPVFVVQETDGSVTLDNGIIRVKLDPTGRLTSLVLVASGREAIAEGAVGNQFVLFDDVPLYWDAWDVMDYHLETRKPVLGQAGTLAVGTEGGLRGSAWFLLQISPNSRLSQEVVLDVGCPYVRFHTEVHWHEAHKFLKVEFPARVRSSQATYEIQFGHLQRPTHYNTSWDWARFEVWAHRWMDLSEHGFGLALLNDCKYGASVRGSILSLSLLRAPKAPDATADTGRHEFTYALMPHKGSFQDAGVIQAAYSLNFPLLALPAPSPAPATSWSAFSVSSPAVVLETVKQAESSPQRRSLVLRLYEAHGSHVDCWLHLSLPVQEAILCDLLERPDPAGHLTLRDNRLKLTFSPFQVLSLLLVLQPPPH

Compound: c1cn2cc(-c3ccc4cn[nH]c4c3)nc(Nc3ccc(N4CCOCC4)cc3)c2n1 [entospletinib]
Experiment: log2 fold change, soluble protein after heating vs DMSO (PISA); higher = thermal stabilisation; K562 cells, 10 uM, 30 min; active = over 0.2 and 3.5 SD of the protein, either way, in both replicates (recomputed)
Procedure, shortened: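 K562 cells (2×10^6 cells/mL) were treated with 10 μM compound for 30 min, and aliquots were heated for 3 min over 48°C-58°C. Pooled aliquots were extracted in PBS with 0.5% NP-40 at 4°C, and the supernatant after 21,000xg for 90 min was measured by TMTpro 16plex LC-MS/MS with channel sums equalised. Reported thermal stability, relative to control samples and from duplicates, is a log2 fold change.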

log2 fold change, inactive:
LSM14B (UniProt Q9BX40) 0.079, LYSMD1 (UniProt Q96S90) -0.104, LRRC8C (UniProt Q8TDW0) -0.074, MACROD1 (UniProt Q9BQ69) -0.008, MAGEB10 (UniProt Q96LZ2) -0.005, LSM2 (UniProt Q9Y333) -0.037, MACC1 (UniProt Q6ZN28) -0.003, LRRC8D (UniProt Q7L1W4) 0.167, MAP3K3 isoform 2 (UniProt Q99759) 0.029, MAEA (UniProt Q7L5Y9) -0.037, LYL1 (UniProt P12980) -0.171, MAD2L1BP isoform 3 (UniProt Q15013) -0.007, LYRM2 (UniProt Q9NU23) -0.058, LRRC8A (UniProt Q8IWT6) 0.29, M6PR (UniProt P20645) 0.01, MANBA (UniProt O00462) 0.035, LSM14A isoform 2 (UniProt Q8ND56) -0.026, MAP4K3 (UniProt Q8IVH8) 0.075, MAFF (UniProt Q9ULX9) 0.094, MANEA (UniProt Q5SRI9) -0.004, MAPRE2 (UniProt Q15555) 0.036, LSM7 (UniProt Q9UK45) -0.046, MAN2A2 (UniProt P49641) -0.061, LYPLAL1 (UniProt Q5VWZ2) -0.03, MAP11 (UniProt Q8WVR3) 0.05, MAN2A1 (UniProt Q16706) 0.046, MAN2C1 isoform 4 (UniProt Q9NTJ4) -0.086, LRRFIP2 (UniProt Q9Y608) 0.035
